This passage reports binding results from article doi:10.1101/2021.07.23.453505.

Results are given in words; binding and its absence hold for the method and conditions named. In cells and extracts the contact can be indirect. Some entries that bind do so weakly or less than the wild type.

Assay [1] concerns the target T1, STAT1 (human (endogenous in Calu-3)), P42224.
T1 chain: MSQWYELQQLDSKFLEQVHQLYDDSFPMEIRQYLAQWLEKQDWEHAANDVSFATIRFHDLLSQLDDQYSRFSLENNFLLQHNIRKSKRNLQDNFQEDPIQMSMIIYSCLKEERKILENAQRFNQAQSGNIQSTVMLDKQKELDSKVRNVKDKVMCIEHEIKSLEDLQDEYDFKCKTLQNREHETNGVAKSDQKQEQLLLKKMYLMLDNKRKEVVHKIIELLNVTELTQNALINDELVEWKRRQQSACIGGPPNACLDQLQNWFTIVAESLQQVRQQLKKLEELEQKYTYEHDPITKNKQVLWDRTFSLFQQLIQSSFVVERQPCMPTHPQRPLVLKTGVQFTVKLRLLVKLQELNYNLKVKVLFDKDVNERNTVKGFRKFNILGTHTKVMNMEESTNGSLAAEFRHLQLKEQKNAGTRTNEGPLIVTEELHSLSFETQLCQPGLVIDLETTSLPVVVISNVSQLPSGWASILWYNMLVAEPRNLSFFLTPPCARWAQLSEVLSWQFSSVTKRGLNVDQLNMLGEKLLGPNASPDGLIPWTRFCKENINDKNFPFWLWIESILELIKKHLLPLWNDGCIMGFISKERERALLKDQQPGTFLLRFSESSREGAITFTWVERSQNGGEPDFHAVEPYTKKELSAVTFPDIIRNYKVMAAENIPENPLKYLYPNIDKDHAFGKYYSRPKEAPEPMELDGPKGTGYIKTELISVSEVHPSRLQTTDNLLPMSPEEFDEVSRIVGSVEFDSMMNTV
Briefly: co-IP. The conditions noted are these: remark: other sources report otherwise.

Assay [2] addresses STAT2 (human (endogenous in Calu-3)), P52630. Briefly: co-IP. Particulars: remark: other sources report otherwise.

B1: IRF9, Q00978 1-393 (protein)
chain: MASGRARCTRKLRNWVVEQVESGQFPGVCWDDTAKTMFRIPWKHAGKQDFREDQDAAFFKAWAIFKGKYKEGDTGGPAVWKTRLRCALNKSSEFKEVPERGRMDVAEPYKVYQLLPPGIVSGQPGTQKVPSKRQHSSVSSERKEEEDAMQNCTLSPSVLQDSLNNEEEGASGGAVHSDIGSSSSSSSPEPQEVTDTTEAPFQGDQRSLEFLLPPEPDYSLLLTFIYNGRVVGEAQVQSLDCRLVAEPSGSESSMEQVLFPKPGPLEPTQRLLSQLERGILVASNPRGLFVQRLCPIPISWNAPQAPPGPGPHLLPSNECVELFRTAYFCRDLVRYFQGLGPPPKFQVTLNFWEESHGSSHTPQNLITVKMEQAFARYLLEQTPEQQAAILSLV
B1: the binding entry in assay [1] and in assay [2] was “binds” each time.
